Data from patent US20190390161A1, “CULTURE MEDIUM COMPRISING OLIGOPEPTIDES” (Evonik Degussa GmbH, priority 2017, published 2019).
At least one compound was matched to its structure with a doubt left.

Chains of the proteins cited; added tags and fusions are not shown. Residues count along the entry.
UniProt P00747, 97-580 partner limits assumed, species assumed: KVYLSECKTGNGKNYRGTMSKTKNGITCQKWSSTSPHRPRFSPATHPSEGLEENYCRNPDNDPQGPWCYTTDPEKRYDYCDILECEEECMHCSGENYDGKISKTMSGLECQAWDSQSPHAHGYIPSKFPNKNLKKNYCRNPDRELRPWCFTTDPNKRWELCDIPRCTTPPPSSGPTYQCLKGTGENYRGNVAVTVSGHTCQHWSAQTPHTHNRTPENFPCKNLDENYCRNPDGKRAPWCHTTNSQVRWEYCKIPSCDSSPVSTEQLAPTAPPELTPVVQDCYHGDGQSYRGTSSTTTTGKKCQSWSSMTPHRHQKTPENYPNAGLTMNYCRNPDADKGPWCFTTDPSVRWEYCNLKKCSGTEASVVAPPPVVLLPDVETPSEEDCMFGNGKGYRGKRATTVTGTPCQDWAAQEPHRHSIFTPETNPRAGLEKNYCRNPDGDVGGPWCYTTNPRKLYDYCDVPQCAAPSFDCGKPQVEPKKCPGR
UniProt P00747, 581-810 limits assumed, species assumed: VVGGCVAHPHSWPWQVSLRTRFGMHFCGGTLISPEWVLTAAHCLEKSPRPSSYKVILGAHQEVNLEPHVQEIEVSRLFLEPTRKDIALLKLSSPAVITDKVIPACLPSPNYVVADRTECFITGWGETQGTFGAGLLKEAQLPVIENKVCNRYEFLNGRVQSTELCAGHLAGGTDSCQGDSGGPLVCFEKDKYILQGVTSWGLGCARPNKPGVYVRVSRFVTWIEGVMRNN

Experiments:
plasmin = plasmin (Homo sapiens, UniProt P00747); conditions: Chemical & Pharmaceutical Bulletin 22, 2680 (1974); cited from earlier work
[1] = system: antibody producing Chinese Hamster Ovary (CHO) cells (Subclone DG44); test: Experiment 2: cell growth (VCD) in TC-42 media, L-tyrosine replaced by dipeptides; assay type: cell-based; parameters: key to Viable cell densities (VCD) / maximum cell densities (max VCD): 10^6 cells/ml
Excerpt: The influence of the L-lysine dipeptides on the growth of antibody producing Chinese Hamster Ovary (CHO) cells (Subclone DG44; Life Technologies Cooperation, Carslbad, USA) in comparison to media containing either the corresponding free amino acids or the corresponding L-alanine dipeptides was investigated. For this purpose, the cells were cultivated in a TC-42 media produced by Xell AG, Bielefeld, Germany in which the amino acids provided within the experiments by dipeptides were lacking. The concentrations of these amino acids were adjusted in such a way that, taking into account a complete hydrolysis of the dipeptides into the amino acids, the concentration of all amino acids were the same in all media tested within this experiment.
Starting from a preparatory culture an initial viable cell density (VCD) of 0.3·10^6 cells/ml was adjusted in shaking flasks by adding the test media. After 2-4 days a part of the cell culture was transferred into a new shaking flask and an initial viable cell density (VCD) of 0.3.10^6 cells/ml was adjusted by adding new test media. This was done two times and then the cell growth was followed by measuring the viable cell density (VCD) for up to 24 days.
These amino acids and the dipeptides L-alanyl-L-tyrosine dihydrate and L-lysyl-L-tyrosine acetate, respectively, were then added to the test media in the concentration listed in table 4.

SMILES: NCCCC[C@H](N)C(=O)N[C@@H](Cc1ccc(O)cc1)C(=O)O [Lys-Tyr, L-Lysyl-L-tyrosine acetate]
- cleavage (hydrolysis) by plasmin (plasmin): none of these peptides were cleaved
- maximum cell densities (max VCD) ([1]; TC-42 media of table 4): 12.64
- Viable cell densities (VCD) ([1]; Time [d] 0.0, TC-42 media of table 4): 0.42
- Viable cell densities (VCD) ([1]; Time [d] 0.7, TC-42 media of table 4): 0.53
- Viable cell densities (VCD) ([1]; Time [d] 1.7, TC-42 media of table 4): 0.82
- Viable cell densities (VCD) ([1]; Time [d] 2.7, first entry, TC-42 media of table 4): 1.68
- Viable cell densities (VCD) ([1]; Time [d] 2.7, second entry (after transfer into new flask), TC-42 media of table 4): 0.39
- Viable cell densities (VCD) ([1]; Time [d] 4.0, TC-42 media of table 4): 0.87
- Viable cell densities (VCD) ([1]; Time [d] 4.9, TC-42 media of table 4): 1.55
- Viable cell densities (VCD) ([1]; Time [d] 5.7, TC-42 media of table 4): 2.29
- Viable cell densities (VCD) ([1]; Time [d] 6.7, first entry, TC-42 media of table 4): 3.08
- Viable cell densities (VCD) ([1]; Time [d] 6.7, second entry (after transfer into new flask), TC-42 media of table 4): 0.32
- Viable cell densities (VCD) ([1]; Time [d] 7.7, TC-42 media of table 4): 0.52
- Viable cell densities (VCD) ([1]; Time [d] 8.7, TC-42 media of table 4): 1.16
- Viable cell densities (VCD) ([1]; Time [d] 9.7, TC-42 media of table 4): 1.89
- Viable cell densities (VCD) ([1]; Time [d] 11.0, TC-42 media of table 4): 4.07
- Viable cell densities (VCD) ([1]; Time [d] 11.8, TC-42 media of table 4): 6.17
- Viable cell densities (VCD) ([1]; Time [d] 12.7, TC-42 media of table 4): 8.35
- Viable cell densities (VCD) ([1]; Time [d] 13.7, TC-42 media of table 4): 10.64
- Viable cell densities (VCD) ([1]; Time [d] 14.7, TC-42 media of table 4): 12.64
- Viable cell densities (VCD) ([1]; Time [d] 15.7, TC-42 media of table 4): 12.39
- Viable cell densities (VCD) ([1]; Time [d] 16.7, TC-42 media of table 4): 12.49
- Viable cell densities (VCD) ([1]; Time [d] 17.9, TC-42 media of table 4): 11.76
- Viable cell densities (VCD) ([1]; Time [d] 18.9, TC-42 media of table 4): 12.39
- Viable cell densities (VCD) ([1]; Time [d] 19.7, TC-42 media of table 4): 12.06
- Viable cell densities (VCD) ([1]; Time [d] 20.7, TC-42 media of table 4): 12.06
- Viable cell densities (VCD) ([1]; Time [d] 21.7, TC-42 media of table 4): 12.10
- growth curves compared with reference medium (FIG. 2) ([1]; equimolar amounts of tyrosine): no significant difference
- maximum cell density compared with reference medium ([1]; equimolar amounts of tyrosine): slightly higher values
